Measured values published in publication PMC10163288.
Some of the results follow.

B1: il2ra_site1_2b5i_normal_mot_HHH_b1_02015_af2_000000003_0001_1_19_H_._HHH_b1_08577_0001_0000200008_0000001_1 (protein)
chain: SSSSSSDEELQELFHEAQRLWKNGNPEEAREVLKEAIELAREEGDEKALKDLEQLLERYSSSSSS
B2: il2ra_site2_3nfp_sap_24_mot_HHH_b2_00236_af2_000000197_0001_23_39_H_._44c1d34e7de0649e2bc3bb7207530e70_0001_0001_0000300025_0000001_0_0001 (protein)
chain: SSSSDAHEQVEETLEYLKAAALLRNDEELREVIEEAEEILKEDNDPEKALRLLYEIIDKATSSSS
B3: il2ra_site2_2erj_sap_24_mot_HHH_b2_03863_000000157_0001_22_38_H_._HHH_b1_03634_0001_0000200005_0000001_1_0001 (protein)
chain: SEEEELLKLVKKGDLRAVYKIANLIMHLKANGNPEEAEELARLLTEVLEELGTPNAAEIVKQSLR
B4: il2ra_site2_3nfp_sap_24_mot_HHH_b1_06589_000000230_0001_37_50_H_._HHH_b1_00803_0001_0000500019_0000001_0_0001 (protein)
chain: SSSSSDHEVYERVVELLKEANEIEDEEERREVLEEAEELAKELGDPVLERSVRDVAEAVNSSSSS
B5: il2ra_site2_2erj_sap_26_mot_6c2800a769814540b5b47941e710ff28_0001_000000197_0001_35_49_H_._HHH_b2_05475_0001_0000200011_0000001_0_0001_af2pred_0001_af2pred (protein)
chain: DDEEYIEMWVELAAKRLGVPSVEVETRNGTLHVTVNGTDEAARRVLLAAELAAKAAGLPFETTEE
B6: il2ra_site2_3nfp_sap_20_mot_HHH_b1_03818_000000217_0001_1_20_H_._HHH_b1_03372_af2_0001_0000600033_0000001_0_0001_af2pred_0001_1_af2pred_swapped (protein)
chain: SSSSDEIEKAVRAALRFAKQAYEEGNPELAENALEYAKAVALLNDNPELEKEVQKVEEELKSSSS
B7: il2ra_site2_3nfp_normal_mot_HHH_b2_08245_000000023_0001_41_55_H_._HHH_b2_01605_0001_0000500032_0000001_0 (protein)
chain: SSSSDEEEIEELLRKAEQAVREGDEELAKKLLQRATHVAYELNDPRLFFRVAELLFLLEHSSSSS
B8: il2ra_site2_3nfp_normal_mot_HHH_b1_05785_af2_000000002_0001_41_57_H_._HHH_b2_03463_af2_0001_0000200005_0000001_0 (protein)
chain: SSSSDRAEEYLRAALELAKEAIEQGDHEVAEKILRLVVLLAEDLGDEEVLEEAEKLLEEISSSSS
B9: il2ra_site2_2erj_sap_16_mot_38c2a25aa59ed796a93a89c387754b2e_0001_1_000000210_0001_16_32_H_._HEEHE_2940_0001_0000300006_0000001_0_0001 (protein)
chain: SSSDELRELFELANKLLHALTKGDEELFRELLEEARRLAEKLDSRTAKEILEHLERLFESTSSSS
B10: il2ra_site2_2erj_sap_13_mot_HHH_b2_06689_af2_000000039_0001_18_34_H_._HHH_b1_05500_af2_0001_0000100002_0000001_0_0001 (protein)
chain: SSSSSEELHRLYELAVELLRAVAEGDEELVREILEEVEELAERADSENVKELIENLHRLFNSSSS
B11: il2ra_site2_3nfp_sap_16_mot_HHH_b1_03316_000000041_0001_39_56_H_._702997820559c2f17efcc64b63c1c749_0001_1_0001_0000200016_0000001_0_0001_af2pred_0001_1_af2pred_ … (protein)
chain: DSEKELFKEALEEGDPALIDAVALAIALAERGKPPEEIEKSVERWLRAQGVPPEEIEEILELLRK
B12: il2ra_site1_1z92_sap_10_mot_HHH_b2_01254_af2_000000148_0001_42_56_H_._HHH_b1_02802_0001_0000600017_0000001_0_0001_af2pred_0001_af2pred_1_swapped (protein)
chain: SLQEEVRRLLEEAGVPPSDIKIFKELIEQAEEEGAPPEAILRDLIRFLEFAGDPEAAELLRRLEK
B13: il2ra_site2_2erj_normal_mot_HHH_b1_03609_af2_000000077_0001_42_55_H_._HHH_b2_00837_0001_0000600017_0000001_0 (protein)
chain: SSSSSDEEEQEVEELLEEAKRIEDPEERERVLRRASIIAFRLGNFELWALIAEVFRELSSSSSSS
B14: il2ra_site2_3nfp_sap_23_mot_HHH_b1_04032_000000208_0001_43_56_H_._c19e5fdadaa67d7d98d76bf2a1bb890a_0001_af2_0001_0000400031_0000001_0_0001 (protein)
chain: SSSSDVERRVQELQVRAYELLKRGNPEEARELLEEALELAEEGNDPHLERQVREALELLKSSSSS
B15: il2ra_site2_3nfp_sap_21_mot_HHH_b1_07556_000000077_0001_42_55_H_._HHH_b2_06001_0001_0000200009_0000001_0_0001 (protein)
chain: SSSSKAEEYLKIALELLRELLEAGDEEAARSVAEVALAAAESRNDEEVEEEVRKVLEELESSSSS
B16: il2ra_site2_2erj_normal_mot_HHH_b2_00732_af2_000000006_0001_23_40_H_._HHH_b2_05430_0001_0000400009_0000001_0 (protein)
chain: SSSSYEVLKRVMELLAEAMRAAWEGDPELVRELLEEAKELAEEHKNEDLEKIIEEVEHTLRSSSS
B17: il2ra_site2_2erj_sap_16_mot_HHH_b1_03702_000000266_0001_38_56_H_._890837e3a18e6c361ae5da7f11a0c10d_0001_1_0001_0000400010_0000001_0_0001 (protein)
chain: SSSSSDSLEVNKEMAEELFEEGDRSALELILRYLELILRDTGDPEIEKAYERVQELLERLSSSSS
B18: il2ra_site2_3nfp_sap_24_mot_HHH_b1_08081_af2_000000020_0001_38_50_H_._HHH_b2_06530_0001_0000200022_0000001_0_0001_af2pred_0001_af2pred (protein)
chain: DHVSRVIRELFEEGDPELALLLSSVKALVFEKNDPELEEELEKLIELAKRDPEEAKELARRLAQR
B19: il2ra_site1_1z92_sap_31_mot_HHH_b1_00484_000000059_0001_1_21_H_._3bb7d9e44b5839af8d8f44c30c46ab63_0001_af2_0001_0000200019_0000001_0_0001_af2pred_0001_af2pred (protein)
chain: SSSSDEELREFAEEVVERLVEEFGLDEELERLLRRLAEKLVEAGFSPKSIELALRAAVERLSSSS
B20: il2ra_site2_2erj_sap_18_mot_HHH_b2_00554_af2_000000116_0001_43_57_H_._HHH_b2_00577_0001_0000400010_0000001_1_0001 (protein)
chain: SSSSDEELRRLYELAVRILRAIAEGNPEEAKELLRELEELAEETKSDNVKEIVEWLERMLRSSSS

target: il2ra, P01589; assay: yeast display titration

Apparent Kd, inactive:
B1 no binding seen
B2 no binding seen
B3 no binding seen
B4 no binding seen
B5 no binding seen
B6 no binding seen
B7 no binding seen
B8 no binding seen
B9 no binding seen
B10 no binding seen
B11 no binding seen
B12 no binding seen
B13 no binding seen
B14 no binding seen
B15 > 21.4 µM
B16 no binding seen
B17 no binding seen
B18 no binding seen
B19 no binding seen
B20 no binding seen

Quoted at random: 2 records from the list
Apparent Kd, inactive:
B16 no binding seen
B11 no binding seen
